Earlier results, collected in patent publication US8178083B2, “Treatment of optic neuritis” (Ares Trading, S.A., priority 2005, dated 2012).
For at least one compound, name, drawing or mass did not settle the structure.

System: patients with acute isolated unilateral optic neuritis

## C[C@H]1C[C@@H]2[C@H]([C@@H](O)C[C@@]3(C)[C@H]2CC[C@]3(O)C(=O)CO)[C@@]2(C)C=CC(=O)C=C12 [methylprednisolone]
Intravenous methylprednisolone followed by oral prednisone, 6- and 12-month follow-up
  visual recovery and visual outcome: accelerated visual recovery but did not improve visual outcome
Within 2 years of follow-up
  patients who developed new bouts of optic neuritis (in either the affected or fellow eye): 13%
